The labels stand for the following.
T1: human PDGF-C peptide no. 18 (human)
T1 sequence (peptide, N-terminally biotinylated): FVEVEEPSDGTILGR

Protein sequences, listed by entry. Tags and fused reporters are not part of them. Residues count along the entry.
UniProt Q9NRA1, residues 23-345: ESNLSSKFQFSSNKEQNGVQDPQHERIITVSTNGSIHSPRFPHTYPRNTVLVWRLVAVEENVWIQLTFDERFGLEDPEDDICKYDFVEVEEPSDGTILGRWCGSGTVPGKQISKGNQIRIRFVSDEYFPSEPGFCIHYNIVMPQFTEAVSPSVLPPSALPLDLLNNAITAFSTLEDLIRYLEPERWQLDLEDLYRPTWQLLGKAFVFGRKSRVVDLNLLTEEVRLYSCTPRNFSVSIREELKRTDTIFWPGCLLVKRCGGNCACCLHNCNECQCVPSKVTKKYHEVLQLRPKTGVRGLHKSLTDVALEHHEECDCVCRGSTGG

T2: human PDGF-C peptide no. 46 (human)
T2 sequence (peptide, N-terminally biotinylated): YSCTPRNFSVSIREE

T3: human PDGF-C peptide no. 38 (human)
T3 sequence (peptide, N-terminally biotinylated): WQLDLEDLYRPTWQL

T4: human PDGF-C peptide no. 58 (human)
T4 peptide: Biotin-VLQLRPKTGVRGLHK

T5: human PDGF-C peptide no. 48 (human)
T5 sequence (peptide, N-terminally biotinylated): SIREELKRTDTIFWP

T6: human PDGF-C peptide no. 26 (human)
T6 sequence (peptide, N-terminally biotinylated): EYFPSEPGFCIHYNI

T7: human PDGF-C peptide no. 28 (human)
T7 sequence (peptide, N-terminally biotinylated): IHYNIVMPQFTEAVS

T8: human PDGF-C peptide no. 39 (human)
T8 sequence (peptide, N-terminally biotinylated): EDLYRPTWQLLGKAF

T9: human PDGF-C peptide no. 6 (human)
T9 sequence (peptide, N-terminally biotinylated): RIITVSTNGSIHSPR

T10: human PDGF-C peptide no. 23 (human)
T10 sequence (peptide, N-terminally biotinylated): QISKGNQIRIRFVSD

T11: human PDGF-C peptide no. 63 (human)
T11 sequence (peptide, N-terminally biotinylated): EECDCVCRGSTGG

T12: human PDGF-C peptide no. 4 (human)
T12 sequence (peptide, N-terminally biotinylated): QNGVQDPQHERIITV

T13: human PDGF-C peptide no. 55 (human)
T13 sequence (peptide, N-terminally biotinylated): ECQCVPSKVTKKYHE

T14: human PDGF-C peptide no. 59 (human)
T14 sequence (peptide, N-terminally biotinylated): PKTGVRGLHKSLTDV

B1: anti-PDGF-C antibody 2D3 (antibody, IgG1, V domains shown)
VH: EVQLVESGGDLVKPGGSLKLSCAASGFTFSNYGMSWVRQTPDKRLEWVATIGSGGSYTYYPDSVKGRFTISRDSAKNTLYLQMSSLKSEDTAMYYCARQAPLWDYSDYWGQGTTLTVSS
VL: DVLMTQTPLSLPVSLGDQASISCRSNQTIVHSNGDTYLEWYLQKPGQSPNLLIYKVSNRFSGVPDRFSGSGSGTDFTLKISRVEAEDLGVYYCFQGSHVPPTFGGGTKLEIK
notes: Mouse monoclonal from hybridoma, IgG1, kappa; also called mAb 2D3; hybridoma LMBP 9483CB
B2: anti-PDGF-C antibody 5H7 (antibody, IgG1, V domains shown)
VH: B1 VH with N31S, S53Y, Y57F, V64M, S74N, Y80F, M93I, A97V, S106F
VL: B1 VL with N26S, N33D, D35T, P45A, N50K
notes: Mouse monoclonal from hybridoma, IgG1, kappa; also called mAb 5H7; hybridoma LMBP 9485CB
B3: anti-PDGF-C antibody 16B1 (antibody, IgG1, V domains shown)
VH: B1 VH
VL: B1 VL with T28S, N50K
notes: Mouse monoclonal from hybridoma, IgG1, kappa; VH same as 2D3, VL same as 5A2; also called mAb 16B1; hybridoma LMBP 9486CB
B4: anti-PDGF-C antibody 29H1 (antibody, IgG1, V domains shown)
VH: B1 VH with S56H, N77S, K87R, E89D, M93I, Y105C
VL: B1 VL with T28S
notes: Mouse monoclonal from hybridoma, IgG1, kappa; also called mAb 29H1; hybridoma LMBP 9487CB

The values below come from patent US20150232546A1 (THROMBOGENICS, published 2015).

Where a chain is given by its changes, count along the chain named. These are yes or no findings as the source states them, for the method shown. Some entries that bind do so weakly or less than the wild type.

One assay deals with full-length human PDGF-C (Example 6) (human) (UniProt Q9NRA1). Kind of assay: ELISA.
Regarding B1, the binding result is on record as “binds”.
On the same count and under the same terms, then B2, with “binds”; and B3, with “binds”; and B4, with “binds”.

In the next assay the target is T1, human PDGF-C peptide no. 18 (human). Kind of assay: peptide ELISA.
As to B1, the binding result is given as “no binding (tested: 1 µg/mL)”.
With B2, the binding entry is given as “no binding (tested: 1 µg/mL)”.
In the case of B3, the binding result is “no binding (tested: 1 µg/mL)”.
Take B4: the binding entry is listed as “no binding (tested: 1 µg/mL)”.

A further assay addresses T2, human PDGF-C peptide no. 46 (human). Kind of assay: peptide ELISA.
B1: the binding result is “no binding (tested: 1 µg/mL)”.
On the same count and under the same terms, under B2 stands “no binding (tested: 1 µg/mL)”.
Consider B3, for which the binding result was “no binding (tested: 1 µg/mL)”.
In the case of B4, the binding result is on record as “no binding (tested: 1 µg/mL)”.

For the next assay, the target named is T3, human PDGF-C peptide no. 38 (human). Kind of assay: peptide ELISA.
For the molecule B1, the binding entry is “no binding (tested: 1 µg/mL)”.
Still for that read-out and setting: then B2, with “no binding (tested: 1 µg/mL)”; and B3, with “no binding (tested: 1 µg/mL)”.
With B4, the binding result is “no binding (tested: 1 µg/mL)”.

In a further assay the target is T4, human PDGF-C peptide no. 58. The experiment in a line: peptide ELISA.
As to B1, the binding entry is “binds”.
Still for that read-out and setting: under B3 stands “no binding (tested: 1 µg/mL)”.

For a further assay, the target named is T5, human PDGF-C peptide no. 48 (human). The experiment in a line: peptide ELISA.
Take B1: the binding result was “no binding (tested: 1 µg/mL)”.
Consider B2, for which the binding result is on record as “no binding (tested: 1 µg/mL)”.
For the molecule B3, the binding result is “no binding (tested: 1 µg/mL)”.
B4: the binding entry was “no binding (tested: 1 µg/mL)”.

The next assay addresses T6, human PDGF-C peptide no. 26 (human). Kind of assay: peptide ELISA.
B1: the binding result is given as “no binding (tested: 1 µg/mL)”.
Regarding B2, the binding result was “no binding (tested: 1 µg/mL)”.
Still for that read-out and setting: under B3 stands “no binding (tested: 1 µg/mL)”.
On to B4, for which the binding entry is on record as “no binding (tested: 1 µg/mL)”.

Another assay has as its target T7, human PDGF-C peptide no. 28 (human). Kind of assay: peptide ELISA.
Consider B1, for which the binding result is on record as “no binding (tested: 1 µg/mL)”.
B2: the binding entry is listed as “no binding (tested: 1 µg/mL)”.
B3: the binding entry is on record as “no binding (tested: 1 µg/mL)”.
As to B4, the binding result was “no binding (tested: 1 µg/mL)”.

Another assay has as its target T8, human PDGF-C peptide no. 39 (human). The experiment in a line: peptide ELISA.
With B1, the binding result is recorded as “no binding (tested: 1 µg/mL)”.
Consider B2, for which the binding entry is reported as “no binding (tested: 1 µg/mL)”.
Turning to B3, the binding result is listed as “no binding (tested: 1 µg/mL)”.
B4: the binding result is “no binding (tested: 1 µg/mL)”.

In the next assay the target is T9, human PDGF-C peptide no. 6 (human). The experiment in a line: peptide ELISA.
Regarding B1, the binding result was “no binding (tested: 1 µg/mL)”.
For B2, the binding entry is “no binding (tested: 1 µg/mL)”.
For the molecule B3, the binding entry is recorded as “no binding (tested: 1 µg/mL)”.
On the same count and under the same terms, under B4 stands “no binding (tested: 1 µg/mL)”.

The next assay addresses T10, human PDGF-C peptide no. 23 (human). The experiment in a line: peptide ELISA.
For the molecule B1, the binding entry was “no binding (tested: 1 µg/mL)”.
In the case of B2, the binding result is “no binding (tested: 1 µg/mL)”.
Still for that read-out and setting: then B3, with “no binding (tested: 1 µg/mL)”; and B4, with “no binding (tested: 1 µg/mL)”.

The target of the next assay is T11, human PDGF-C peptide no. 63 (human). The experiment in a line: peptide ELISA.
On to B1, for which the binding entry is given as “no binding (tested: 1 µg/mL)”.
With B2, the binding result was “no binding (tested: 1 µg/mL)”.
With B3, the binding result is listed as “no binding (tested: 1 µg/mL)”.
Still for that read-out and setting: under B4 stands “no binding (tested: 1 µg/mL)”.

A further assay has as its target T12, human PDGF-C peptide no. 4 (human). The experiment in a line: peptide ELISA.
In the case of B1, the binding entry is “no binding (tested: 1 µg/mL)”.
The same measure, in the same setting: under B2 stands “no binding (tested: 1 µg/mL)”.
On to B3, for which the binding result is “no binding (tested: 1 µg/mL)”.
Consider B4, for which the binding result is on record as “no binding (tested: 1 µg/mL)”.

A further assay concerns the target T13, human PDGF-C peptide no. 55 (human). Kind of assay: peptide ELISA.
For B1, the binding entry is listed as “no binding (tested: 1 µg/mL)”.
On to B2, for which the binding result is “no binding (tested: 1 µg/mL)”.
In the case of B3, the binding entry is on record as “no binding (tested: 1 µg/mL)”.
In the case of B4, the binding entry was “no binding (tested: 1 µg/mL)”.

In a further assay the target is T14, human PDGF-C peptide no. 59 (human). The experiment in a line: peptide ELISA.
For the molecule B1, the binding entry was “no binding (tested: 1 µg/mL)”.
Regarding B2, the binding result is on record as “no binding (tested: 1 µg/mL)”.
In the case of B3, the binding result was “no binding (tested: 1 µg/mL)”.
Take B4: the binding entry is listed as “no binding (tested: 1 µg/mL)”.

A further assay deals with T4, human PDGF-C peptide no. 58. Kind of assay: peptide ELISA, signal to background >3. The protocol: The indicated peptides where synthesized in an N-terminally biotinylated form and coated onto a neutravidin plate (Thermo Scientific, Cat. 15127) at a concentration of 10 μg/mL. […] Each antibody was tested at least twice, and up to 4 times. A “+” in the table indicate that a signal to background >3 was found and confirmed at least once. The background signal was measured in the absence of peptide using both the primary and the secondary antibodies.
In the case of B1, the binding entry is reported as “binds”.
